Here are results for 6 molecules from patent US20240307489A1 (WESTLAKE UNIVERSITY, published 2024).

Protein sequences, listed by entry. Tags and fused reporters are not part of them. Lines headed by an entry give the natural chain unless they say otherwise; changes in a name come on top. Chains listed by the source or under a name are the forms on record and can include a tag or linker. Residues count along the entry.
UniProt Q07954: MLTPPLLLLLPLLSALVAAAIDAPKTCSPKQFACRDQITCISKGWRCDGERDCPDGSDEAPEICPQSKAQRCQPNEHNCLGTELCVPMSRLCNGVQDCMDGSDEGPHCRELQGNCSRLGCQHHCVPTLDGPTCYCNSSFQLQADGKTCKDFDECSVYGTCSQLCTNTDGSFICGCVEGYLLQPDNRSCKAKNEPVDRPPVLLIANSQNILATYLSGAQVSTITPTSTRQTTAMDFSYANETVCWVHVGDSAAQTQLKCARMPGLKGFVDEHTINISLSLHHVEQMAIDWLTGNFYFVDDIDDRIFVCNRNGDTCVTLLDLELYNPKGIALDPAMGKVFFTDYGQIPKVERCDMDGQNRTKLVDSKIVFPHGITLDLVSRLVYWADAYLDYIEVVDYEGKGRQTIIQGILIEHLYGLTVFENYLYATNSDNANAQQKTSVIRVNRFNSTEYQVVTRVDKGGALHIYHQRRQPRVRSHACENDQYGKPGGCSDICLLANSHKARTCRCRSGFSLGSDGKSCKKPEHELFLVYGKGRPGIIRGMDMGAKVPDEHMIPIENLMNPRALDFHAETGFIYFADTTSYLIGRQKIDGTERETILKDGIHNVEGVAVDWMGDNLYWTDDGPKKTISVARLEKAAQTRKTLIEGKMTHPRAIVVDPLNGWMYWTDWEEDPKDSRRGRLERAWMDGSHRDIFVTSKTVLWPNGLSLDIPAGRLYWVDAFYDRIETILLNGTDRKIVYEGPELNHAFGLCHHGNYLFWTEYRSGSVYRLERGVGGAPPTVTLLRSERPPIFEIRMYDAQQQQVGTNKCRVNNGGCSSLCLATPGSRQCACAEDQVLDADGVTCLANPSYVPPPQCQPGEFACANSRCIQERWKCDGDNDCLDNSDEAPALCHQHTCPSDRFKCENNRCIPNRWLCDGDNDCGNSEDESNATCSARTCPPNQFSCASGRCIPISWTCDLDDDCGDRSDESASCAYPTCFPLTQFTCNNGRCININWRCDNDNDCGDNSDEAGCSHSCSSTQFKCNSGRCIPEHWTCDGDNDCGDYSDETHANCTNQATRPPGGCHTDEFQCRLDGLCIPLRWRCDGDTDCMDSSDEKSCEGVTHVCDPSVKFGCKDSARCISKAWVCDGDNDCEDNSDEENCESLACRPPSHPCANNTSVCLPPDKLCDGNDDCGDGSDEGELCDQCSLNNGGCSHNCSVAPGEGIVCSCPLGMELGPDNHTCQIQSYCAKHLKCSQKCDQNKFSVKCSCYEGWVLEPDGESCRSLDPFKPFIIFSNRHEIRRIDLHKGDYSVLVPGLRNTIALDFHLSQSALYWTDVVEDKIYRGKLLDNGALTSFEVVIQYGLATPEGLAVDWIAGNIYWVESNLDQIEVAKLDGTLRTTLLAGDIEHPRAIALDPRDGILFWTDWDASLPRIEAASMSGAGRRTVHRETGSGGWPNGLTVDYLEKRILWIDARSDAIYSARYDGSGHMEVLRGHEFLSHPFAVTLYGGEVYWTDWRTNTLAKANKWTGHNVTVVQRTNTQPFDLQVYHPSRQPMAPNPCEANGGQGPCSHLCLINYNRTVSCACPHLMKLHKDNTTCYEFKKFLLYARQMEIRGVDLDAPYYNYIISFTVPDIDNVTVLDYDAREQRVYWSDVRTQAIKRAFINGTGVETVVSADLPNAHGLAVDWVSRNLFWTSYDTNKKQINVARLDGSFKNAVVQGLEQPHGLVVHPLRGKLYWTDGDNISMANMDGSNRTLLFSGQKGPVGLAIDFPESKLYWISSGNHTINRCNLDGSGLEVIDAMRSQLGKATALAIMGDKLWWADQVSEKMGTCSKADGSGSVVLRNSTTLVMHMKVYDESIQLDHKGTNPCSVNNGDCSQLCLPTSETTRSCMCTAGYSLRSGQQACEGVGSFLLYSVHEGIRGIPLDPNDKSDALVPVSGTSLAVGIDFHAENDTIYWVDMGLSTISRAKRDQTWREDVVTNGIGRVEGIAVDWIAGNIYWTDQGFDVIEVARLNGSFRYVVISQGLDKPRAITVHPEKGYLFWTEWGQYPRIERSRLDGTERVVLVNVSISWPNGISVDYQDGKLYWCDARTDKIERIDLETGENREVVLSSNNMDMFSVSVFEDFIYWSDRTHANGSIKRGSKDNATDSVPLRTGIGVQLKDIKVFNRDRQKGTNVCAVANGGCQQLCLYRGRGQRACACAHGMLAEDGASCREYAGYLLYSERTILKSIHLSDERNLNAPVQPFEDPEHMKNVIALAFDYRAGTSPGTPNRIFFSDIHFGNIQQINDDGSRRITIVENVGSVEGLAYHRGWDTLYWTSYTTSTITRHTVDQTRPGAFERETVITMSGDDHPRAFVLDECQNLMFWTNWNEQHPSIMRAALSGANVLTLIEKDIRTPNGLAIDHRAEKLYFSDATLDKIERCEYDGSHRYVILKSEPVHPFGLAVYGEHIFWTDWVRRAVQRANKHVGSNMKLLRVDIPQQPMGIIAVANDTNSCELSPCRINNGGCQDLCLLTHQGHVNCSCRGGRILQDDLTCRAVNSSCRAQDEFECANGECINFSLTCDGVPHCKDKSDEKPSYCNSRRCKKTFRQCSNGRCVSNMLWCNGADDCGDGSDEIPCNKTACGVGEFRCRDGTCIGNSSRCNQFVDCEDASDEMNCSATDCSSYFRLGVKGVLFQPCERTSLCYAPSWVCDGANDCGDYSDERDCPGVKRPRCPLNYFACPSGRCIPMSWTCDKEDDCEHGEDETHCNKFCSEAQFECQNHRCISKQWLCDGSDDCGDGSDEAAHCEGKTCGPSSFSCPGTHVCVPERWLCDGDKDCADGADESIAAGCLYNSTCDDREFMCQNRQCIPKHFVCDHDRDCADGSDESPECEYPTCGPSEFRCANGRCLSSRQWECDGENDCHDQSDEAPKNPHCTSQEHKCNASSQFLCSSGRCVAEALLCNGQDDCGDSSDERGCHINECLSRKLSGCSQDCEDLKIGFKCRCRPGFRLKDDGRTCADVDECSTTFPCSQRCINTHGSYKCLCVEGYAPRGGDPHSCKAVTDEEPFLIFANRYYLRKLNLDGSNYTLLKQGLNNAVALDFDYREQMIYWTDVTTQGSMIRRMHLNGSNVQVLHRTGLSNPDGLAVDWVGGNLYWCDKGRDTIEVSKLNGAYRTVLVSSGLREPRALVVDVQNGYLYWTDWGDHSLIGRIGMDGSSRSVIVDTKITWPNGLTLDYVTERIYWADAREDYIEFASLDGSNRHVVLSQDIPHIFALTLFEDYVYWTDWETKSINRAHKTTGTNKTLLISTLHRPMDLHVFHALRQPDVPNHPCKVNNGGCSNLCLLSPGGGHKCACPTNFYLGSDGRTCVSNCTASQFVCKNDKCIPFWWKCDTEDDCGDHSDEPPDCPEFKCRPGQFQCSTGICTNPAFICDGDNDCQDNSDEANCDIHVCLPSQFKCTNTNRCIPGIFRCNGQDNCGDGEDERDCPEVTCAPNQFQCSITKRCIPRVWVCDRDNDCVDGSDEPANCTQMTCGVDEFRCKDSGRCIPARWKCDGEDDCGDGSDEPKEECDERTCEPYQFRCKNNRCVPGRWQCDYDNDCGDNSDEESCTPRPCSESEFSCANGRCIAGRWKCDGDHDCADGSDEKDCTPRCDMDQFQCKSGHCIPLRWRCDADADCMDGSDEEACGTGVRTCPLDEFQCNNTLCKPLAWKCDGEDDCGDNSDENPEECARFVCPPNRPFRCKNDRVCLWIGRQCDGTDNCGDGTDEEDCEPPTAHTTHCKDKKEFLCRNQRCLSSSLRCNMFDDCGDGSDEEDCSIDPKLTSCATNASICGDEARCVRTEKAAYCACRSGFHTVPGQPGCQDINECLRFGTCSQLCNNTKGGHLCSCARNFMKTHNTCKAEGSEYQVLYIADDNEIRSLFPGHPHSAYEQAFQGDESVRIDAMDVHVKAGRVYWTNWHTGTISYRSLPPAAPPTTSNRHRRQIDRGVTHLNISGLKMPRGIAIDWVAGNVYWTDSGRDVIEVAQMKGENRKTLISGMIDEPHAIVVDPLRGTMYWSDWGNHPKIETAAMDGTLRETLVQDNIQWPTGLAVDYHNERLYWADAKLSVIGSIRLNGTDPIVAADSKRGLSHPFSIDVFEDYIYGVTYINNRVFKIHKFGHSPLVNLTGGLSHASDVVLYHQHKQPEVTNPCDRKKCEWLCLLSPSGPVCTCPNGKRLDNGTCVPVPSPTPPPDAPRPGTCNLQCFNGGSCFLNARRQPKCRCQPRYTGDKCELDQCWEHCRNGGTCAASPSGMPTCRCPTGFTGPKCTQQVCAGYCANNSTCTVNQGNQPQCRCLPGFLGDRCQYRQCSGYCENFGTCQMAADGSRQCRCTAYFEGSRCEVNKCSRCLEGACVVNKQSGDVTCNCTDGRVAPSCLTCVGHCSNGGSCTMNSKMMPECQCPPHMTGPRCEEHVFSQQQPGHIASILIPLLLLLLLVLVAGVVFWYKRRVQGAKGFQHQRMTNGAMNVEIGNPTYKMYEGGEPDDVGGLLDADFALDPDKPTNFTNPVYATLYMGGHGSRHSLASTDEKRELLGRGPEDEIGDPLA
LRP1α, extracellular ligand-binding subunit of 515 kDa of LRP1, endogenous in HEK293T cells: residues 20-3943 of Q07954
Myc-tagged LRP1β: residues 3944-4544 of Q07954
UniProt P30533: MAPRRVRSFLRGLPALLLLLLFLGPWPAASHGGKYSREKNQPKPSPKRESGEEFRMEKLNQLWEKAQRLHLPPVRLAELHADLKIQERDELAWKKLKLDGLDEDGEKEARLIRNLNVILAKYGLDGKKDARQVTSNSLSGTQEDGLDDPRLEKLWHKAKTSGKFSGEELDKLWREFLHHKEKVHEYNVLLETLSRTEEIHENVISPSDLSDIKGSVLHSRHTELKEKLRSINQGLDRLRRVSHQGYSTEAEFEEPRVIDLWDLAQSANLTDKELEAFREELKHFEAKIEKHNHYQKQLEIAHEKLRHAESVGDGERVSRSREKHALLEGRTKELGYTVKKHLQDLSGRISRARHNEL

Experiment [1] deals with DLL3, endogenous in HEK293T cells (human) (UniProt Q9NYJ7). As to the kind of experiment: co-immunoprecipitation of endogenous proteins from HEK293T lysate.
In experiment [2] the target is LRP1α, extracellular ligand-binding subunit of 515 kDa of LRP1, endogenous in HEK293T cells (human) (UniProt Q07954). As to the kind of experiment: GST pull-down of HEK293T lysate with GST-RAPm6 on glutathione sepharose, western blot for LRP1α.
The next experiment has as its target Myc-tagged DLL3 (human) (UniProt Q9NYJ7). The experiment in a line: S-bead pull-down of cSFB-LRP1β with Myc-DLL3 from co-transfected HEK293T cells.
Experiment [3] concerns the target LRP1β, transmembrane and intracellular subunit of 85 kDa of LRP1, endogenous in HEK293T cells (human) (UniProt Q07954). The experiment in a line: co-immunoprecipitation of endogenous proteins from HEK293T lysate, western blot.
Experiment [4] concerns the target DLL3, endogenous in HEK293T cells (human) (UniProt Q9NYJ7). As to the kind of experiment: figure legend heading (co-IP, pull-down).
Experiment [5] shares this target. As to the kind of experiment: co-immunoprecipitation of endogenous proteins from HEK293T lysate, western blot.
In another experiment the target is Myc-tagged LRP1β (human) (UniProt Q07954). The experiment in a line: S-bead pull-down of cSFB-DLL3 with Myc-LRP1β from co-transfected HEK293T cells.

No constants are given. Whether binding was seen depends on the method and setting. In cells and extracts the contact can be indirect. Some entries that bind do so weakly or less than the wild type.

For “LRP1β, transmembrane and intracellular subunit of 85 kDa of LRP1, endogenous in HEK293T cells (from UniProt Q07954 3944-4544) (receptor)”, the binding entry in experiment [1] was “binds”. “GST-RAPm6 (LRPAP1 mutant RAPm6 fused to GST, purified from E. coli) (from UniProt P30533 35-357)”: the binding result in experiment [2] is listed as “binds”.

Consider “cSFB-tagged wild-type LRP1β (from UniProt Q07954 3944-4544) (receptor)”, for which, in the experiment with Myc-tagged DLL3 (human), the binding result is “binds”.

On to “DLL3, endogenous in HEK293T cells (from UniProt Q9NYJ7 27-618) (ligand)”, for which, in experiment [3], the binding result is recorded as “binds”. For “LRP1 (low density lipoprotein receptor-related protein 1), endogenous in HEK293T cells (from UniProt Q07954 20-4544)”, the binding entry in experiment [4] and in experiment [5] was “binds” in each case.

B1: cSFB-tagged wild-type DLL3 (ligand, human, UniProt Q9NYJ7 27-618, looked up)
chain: AGVFELQIHSFGPGPGPGAPRSPCSARLPCRLFFRVCLKPGLSEEAAESPCALGAALSARGPVYTEQPGAPAPDLPLPDGLLQVPFRDAWPGTFSFIIETWREELGDQIGGPAWSLLARVAGRRRLAAGGPWARDIQRAGAWELRFSYRARCEPPAVGTACTRLCRPRSAPSRCGPGLRPCAPLEDECEAPLVCRAGCSPEHGFCEQPGECRCLEGWTGPLCTVPVSTSSCLSPRGPSSATTGCLVPGPGPCDGNPCANGGSCSETPRSFECTCPRGFYGLRCEVSGVTCADGPCFNGGLCVGGADPDSAYICHCPPGFQGSNCEKRVDRCSLQPCRNGGLCLDLGHALRCRCRAGFAGPRCEHDLDDCAGRACANGGTCVEGGGAHRCSCALGFGGRDCRERADPCAARPCAHGGRCYAHFSGLVCACAPGYMGARCEFPVHPDGASALPAAPPGLRPGDPQRYLLPPALGLLVAAGVAGAALLLVHVRRRGHSQDAGSRLLAGTPEPSVHALPDALNNLRTQEGSGDGPSSSVDWNRPEDVDPQGIYVISAPSIYAREVATPLFPPLHTGRAGQRQHLLFPYPSSILSVK
notes: Expressed in HEK293T cells, pulled down on S beads; also called cSFB-DLL3; C-terminal SFB-fused DLL3; not shown: C-terminal SFB triple tag (S protein tag-2xFLAG tag-SBP tag)
In the case of B1, the binding result in the experiment with Myc-tagged LRP1β (human) is recorded as “binds”.
